No constants are given. Whether binding was seen depends on the method and setting. For part of these data: Binding seen in cells or lysates may run through a third protein. Some entries that bind do so weakly or less than the wild type. Where a sequence is shown, tags or fusion partners need not be part of it.
Key:
[1] = molecular target: T1, Ubx3-FLAG (S. cerevisiae) (UniProt Q12229); experiment: co-IP; non-denaturing immunoprecipitation of Ubx3-FLAG on anti-FLAG M2 beads from yeast lysate solubilised with glyco-diosgenin, 4 °C; Western blot; WT cells, also tul1Δ and dsc3Δ cells
T1 sequence: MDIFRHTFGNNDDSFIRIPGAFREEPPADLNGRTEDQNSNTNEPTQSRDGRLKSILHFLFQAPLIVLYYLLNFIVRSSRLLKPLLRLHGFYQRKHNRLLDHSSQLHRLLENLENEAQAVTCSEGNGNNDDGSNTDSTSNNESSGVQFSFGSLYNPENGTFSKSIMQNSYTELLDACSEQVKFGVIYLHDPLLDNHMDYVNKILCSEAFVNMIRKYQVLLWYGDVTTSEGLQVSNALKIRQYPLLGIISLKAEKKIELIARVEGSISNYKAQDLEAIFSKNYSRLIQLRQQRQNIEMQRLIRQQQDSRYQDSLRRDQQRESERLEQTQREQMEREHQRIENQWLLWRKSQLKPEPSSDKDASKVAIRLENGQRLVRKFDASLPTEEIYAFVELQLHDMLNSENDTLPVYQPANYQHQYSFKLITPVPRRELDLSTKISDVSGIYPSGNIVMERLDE

[2] = molecular target: T2, Yif1-HA (endogenous Yif1 tagged with 3xHA) (S. cerevisiae) (UniProt P53845); experiment: co-IP; non-denaturing immunoprecipitation of the substrate (FLAG-Hmx1, FLAG-Orm2^KR on anti-FLAG M2 beads; Yif1-HA on anti-HA beads) from yeast lysate solubilised with glyco-diosgenin, 4 °C, washes up to 300 mM NaCl; Western blot; WT cells, also ubx3Δ, dsc3Δ and tul1Δ cells
T2 sequence: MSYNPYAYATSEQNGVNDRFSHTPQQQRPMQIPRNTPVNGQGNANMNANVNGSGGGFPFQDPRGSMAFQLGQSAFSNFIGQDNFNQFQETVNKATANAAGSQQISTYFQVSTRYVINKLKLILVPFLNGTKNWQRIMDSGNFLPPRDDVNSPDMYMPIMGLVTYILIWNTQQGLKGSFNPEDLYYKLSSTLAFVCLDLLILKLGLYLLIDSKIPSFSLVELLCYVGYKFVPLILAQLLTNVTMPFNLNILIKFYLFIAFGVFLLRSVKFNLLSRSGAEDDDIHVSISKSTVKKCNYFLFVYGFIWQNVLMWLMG

[3] = molecular target: T3, FLAG-Hmx1 (heme oxygenase 1 with an N-terminal 3xFLAG tag) (S. cerevisiae) (UniProt P32339); experiment: as above
T3 sequence: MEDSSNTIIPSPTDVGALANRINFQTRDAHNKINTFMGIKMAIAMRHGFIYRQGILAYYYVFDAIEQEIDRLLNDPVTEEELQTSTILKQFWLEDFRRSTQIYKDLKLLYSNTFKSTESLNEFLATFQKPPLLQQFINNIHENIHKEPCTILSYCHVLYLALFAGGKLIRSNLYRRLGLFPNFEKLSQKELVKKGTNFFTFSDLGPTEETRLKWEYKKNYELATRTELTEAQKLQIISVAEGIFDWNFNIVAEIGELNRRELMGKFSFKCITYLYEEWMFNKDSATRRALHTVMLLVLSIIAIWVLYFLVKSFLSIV

[4] = molecular target: T4, GFP-Hmx1^284 (GFP-ALFA fused to Hmx1 residues 284-317) (S. cerevisiae) (UniProt P32339); experiment: co-IP; non-denaturing immunoprecipitation of GFP-Hmx1^284 (anti-ALFA ST magnetic beads) from cells with all Dsc subunits, lysate solubilised with glyco-diosgenin; Western blot
T4 sequence: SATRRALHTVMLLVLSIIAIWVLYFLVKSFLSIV

[5] = molecular target: T4, GFP-Hmx1^284 (GFP-ALFA fused to Hmx1 residues 284-317) (S. cerevisiae); experiment: co-IP; non-denaturing immunoprecipitation of GFP-Hmx1^284 from dsc3Δ cells in which Dsc2 was over-expressed from a galactose inducible promotor (16 h in 2% galactose); control: uninduced cells
[6] = molecular target: T1, Ubx3-FLAG (S. cerevisiae); experiment: SEC; Ubx3-FLAG immunoprecipitated from WT or dsc3Δ cells, eluted with Strep-6xFLAG-peptide, run on Superose 6 Increase 3.2/300 in PBS with 0.05% GDN; fractions analysed by Western blot
[7] = molecular target: T5, GFP-Hmx1^264 (GFP-ALFA fused to Hmx1 residues 264-317) (S. cerevisiae) (UniProt P32339); experiment: co-IP; non-denaturing immunoprecipitation of GFP-ALFA model substrates (anti-ALFA ST magnetic beads) from tul1Δ cells, lysate solubilised with glyco-diosgenin; Western blot
T5 sequence: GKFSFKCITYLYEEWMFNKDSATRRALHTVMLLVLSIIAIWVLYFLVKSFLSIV

Measured: binding

B1: Dsc2 (rhomboid pseudo-protease subunit of the Dsc complex) (protein, UniProt Q08232 1-322)
chain: MSMEPPVGLTAMPVTKLAMITTLVVPLVASIASYKHIFLLQYDPFLQTYHQYYRLLIFQFCAINESDTVILALIWYLFRHLERLLGSHKYLTLIVLSWAYTTLGIWGLNLIWNAFIGQYKWLQWNNFSTGSLPIVLSLVHFYKEYTPQIYEWNIRLLGPRGGASSHNDNKREDKSAVEWKINDQFLLNGLILLLILNQGFAGILCGFISWMCGIFIDKGLLPGLDHWRIPFVSYFISQGPPTRANVAIAANAATNTAAARATVEAATAATGNGNTGNSGPTSLPLRGSSTTPTNTSSAGDDEPGADEPARPLGVQFLDTFRR
binds: all assays above

B2: Dsc3 (UBL domain subunit of the Dsc complex) (protein, UniProt Q12015 1-292)
chain: MSAEPLLPTHNGSQGGEVRSPDQKFIVIRFSDVSVRDLQLNISNVPFSNINTHWLRRMCRELRPQQTQKRRLKFIRNGSILNTHSKIAEELTHYFDTANNSNVATGTSVAPEQNNYYIHCIIGTEELTQAELANEDLKDDATPSNDSMTTQAIGFDRLRSVGFTEQEIELLRQQFRATYGDLEEEEERLAQNGNRDDEGHDIRQLEEQWMESGSGTAQGNGAGGGNEDRFNSVPIANIKHNKDLLLGICVGFFFGVFGILLMKFDGLFNRRQKMAIFAGVIVNVMFCLVRGF
binds: [1] | [6]

From PMC11513148
